# Source: patent US11351102B2, “Plant actives and their anti-pollution effects thereof” (SAMI-SABINSA GROUP LIMITED, priority 2019, dated 2022)
# At least one structure is not confirmed: it was looked up by name or label, or the drawing left a doubt.
# Columns and labels:
# [1] = system: Human HaCaT keratinocyte cells; assay: Protection against polycyclic aromatic hydrocarbons (BaP) in the presence of UVA, neutral red uptake; type: cell-based; conditions: concentrations of 1.25-10 μg/ml
# Source text: Polycyclic aromatic hydrocarbons (PAHs) are a class of mutagenic and tumorigenic environmental contaminants. PAHs are widespread in the environment produced from incomplete combustion of natural materials and tobacco smoke (Connell, D. W.; Hawker, D. W.; Warne, M. J.; Vowles. P. P.; Polycyclic aromatic hydrocarbons (PAHs). In Introduction into Environmental Chemistry (McCombs. K., and Starkweather, A. W., eds), 1997, pp. 205-217, CRC Press LLC, Boca Raton, Fla. 2. Shaw, G. R.; Connell, D. W.: Prediction and monitoring of the carcinogenicity of polycyclic aromatic compounds (PACs). Rev. Environ. Contam. Toxic., 1994, 135, 1-62.) PAHs themselves are biologically inert and require metabolic activation. in order to exert genotoxicity PAHs absorb light in the UVA region, react with oxygen or other molecules to generate reactive intermediates (Yu H, Xia Q, Yan J, et al. Photoirradiation of polycyclic aromatic hydrocarbons with UVA light—a pathway leading to the generation of reactive oxygen species, lipid peroxidation, and dna damage. Int J Environ Res Public Health. […]
# Human HaCaT keratinocyte cells were seeded at a density of 1×10^4 cells/well in 96 well plates. […] The uptake of NR by the cells was determined by lysing the cells and reading the absorbance at 540 nm in a Tecan microplate reader (TECAN Ltd, Männedorf, Switzerland)
# [2] = system: Collagenase Type IV from Clostridium histolyticum; assay: Anti-collagenase activity (DQ gelatin, fluorescence); type: biochemical
# Source text: Collagenase is one of the matrix metalloprotease, which digest collagen and other components of the extra cellular matrix (ECM). The ECM serves as a scaffold to stabilize the skin structure, and also helps in proliferation and metabolic functions of the skin cells. Loss of collagen leads to wrinkles and sagging of skin. The principle of the assay of collagenase inhibition is based on the fact that the substrate DQ™ gelatine is conjugated to fluorecein—a fluorescent compound. In DQ™ gelatine, fluorescence is quenched. DQ™ gelatine is efficiently digested by collagenases to yield a fluorescent compound which can be measured. The increase in fluorescence is proportional to enzyme activity. In the presence of an anti-collagenase compound the amount of fluorescence will be decreased for a fixed concentration of enzyme and substrate. […]
# The assay was performed in a 96 well black microtitre plate. […] 100 µl of the Collagenase enzyme solution (final concentration—0.4 U/ml) was added and the fluorescence intensity was measured at […] after 30 minutes. Enzyme activity of control (buffer) was recorded
# The percentage inhibition is calculated as follows:—
# [formula] B—Fluorescence in the presence of enzyme. BC—Fluorescence in the absence of enzyme activity T—Fluorescence of enzyme activity in the presence of inhibitor TC—Fluorescence of the inhibitor alone
# [3] = system: Human HaCaT keratinocyte cells/mouse fibroblast cells; assay: ROS assay (DCFH-DA) after exposure to heavy metals, UVA or UVB; type: cell-based
# Source text: A cell permeable, non-fluorescent dye, 2′,7′-dichlorofluorescein diacetate (DCFH-DA) enters the cell and the acetate group on DCFH-DA is cleaved by cellular esterases, trapping the non-fluorescent DCFH inside the cell. Subsequent oxidation by reactive oxygen species generated in the cells, yields the fluorescent DCF which can be detected at 485/520 Ex:Em wavelength. The scavenging activity of sample is indicated by the decrease in fluorescence when compared to the control without antioxidant.
# Human HaCaT keratinocyte cells/mouse fibroblast cells were maintained in DMEM containing 25 mM glucose with 10% heat-inactivated fetal calf serum with antibiotics at 37° C. and 5% CO2. When the cells were 70-80% confluent, they were trypsinized, washed and seeded in 96 well plates at a density seeded at a density of 5×10^4 cells/well. Cells were allowed to adhere for overnight. Cells were pretreated with varying non toxic concentrations of different plant actives for 60 minutes before exposing to the pollutant. Cells were exposed to the following pollutants in the presence of plant actives.
# UVA intensity of 15 Joules/m2 for 60 mins,
# UV-B intensity of 4.6 Joule/m2 for 10 mins
# Heavy metals (Cobalt chloride and Lead Nitrate at 0.25 mm each) for 6 hours
# Intracellular ROS was determined after the specific treatment period by adding freshly prepared DCFH-DA reagent to all the wells at a concentration of 10 μg/well and incubated at 37° C. for 30 mins. The fluorescence was recorded at a wavelength of 485:520 (Ex:Em) nm in BMG FluoStar Optima microplate reader.
# [4] = system: glutathione peroxidase (GPx); assay: Antioxidant assay: glutathione peroxidase (GPx) activity in cell lysate; type: cell-based, Human; conditions: UV-exposed keratinocytes
# Method: (§1) Cellular anti-oxidants are depleted by pollutants. The ability of plant actives to increase these anti-oxidant enzymes in the cells was studied in vitro. Human HaCaT keratinocyte cells were seeded at a density of 5×10^5 cells, well in 6 well plates. The cells were pretreated for one hour with plant actives and exposed to UVA intensity of 17 Joules/m2 for 50 mins. Cells were washed with sterile buffer and fresh culture medium (2% of FBS) with respective concentrations of plant actives were added followed by incubation for 24 hours at 37° C. in a CO2 incubator. Cell lysate were prepared and superoxide dismutase (SOD) levels and glutathione peroxidase (GPx) were estimated.
# Glutathione peroxidase activity was determined according to the method of Hafeman et al. (1974). Glutathione peroxidase degrades H2O2 in presence of glutathione (GSH) thereby depleting it. GSH remaining is measured using DTNB, which gives a colored complex.
# To a volume of 100 μl of cell lysate, 0.2 mM GSH, 0.05 mM H2O2 and 1 mM NaN3 in a total volume of 250 μl with 1M sodium phosphate buffer (pH 7.0). The reaction was incubated at 37° C. for 10 min and stopped by adding 50 μl of 25% TCA. […] The intensity of yellow color formation was measured at 412 nm after incubation at 37° C. for 10 min The enzyme activity was expressed as units/mg protein.
# [5] = DPPH free radical scavenging assay
# Source text: Reactive oxygen species (ROS) including superoxide, hydroxyl, peroxyl, and alkoxy radicals are produced by normal metabolic processes. Under normal condition, these free radicals are scavenged by the cellular anti-oxidants and remain in equilibrium. Radiations, toxins and pollutants increase the ROS which can induce oxidative damage to biomolecules such as lipids, nucleic acids, proteins and carbohydrates. These ROS induced damage causes skin irritation, inflammation, ageing, cancer and many other diseases, α, α-diphenyl-β-picrylhydrazyl (DPPH) free radical scavenging method is one of the first approach for evaluating the antioxidant potential of a compound.
# Reagents: 0.1 mM of DPPH in ethanol, 0.1M phosphate buffered saline (pH 7.4)
# DPPH is a stable free radical in a methanolic solution with an absorbance at 520 nm. If the free radicals are scavenged by an anti oxidant molecule, the resulting solution appears yellow. The hydrogen atoms or electrons donation ability of the extracellular metabolite was measured by the bleaching of purple coloured DPPH methanol solution.
# Different concentrations of various plant actives were diluted in methanol. For the DPPH radical scavenging assay, 20 μL of different concentration of sample was mixed with 180 μL of DPPH in methanol in a 96 well plate following the method as described earlier (Clarke et al., 2013). The plate was kept in the dark for 15 min. after which the absorbance of the solution was measured at 540 nm using a microplate reader (TECAN Ltd, Männedorf. Switzerland). Blanks (DMSO, methanol) and standard (TBHQ solution in methanol) were recorded simultaneously. The extracts were screened with variable concentrations to establish the inhibition concentration (IC50, the concentration reducing DPPH absorbance by 50%).
# The free radical scavenging activity was calculated as follows.
# [formula] Where, B=Absorbance of reference solution (OD of DPPH) C=Absorbance of reference solution blank (OD of Methanol only) S=Absorbance of test solution C=Absorbance of test solution blank
# [6] = system: superoxide dismutase (SOD); assay: Antioxidant assay: superoxide dismutase (SOD) activity in cell lysate, WST-1 method; type: cell-based, Human; conditions: UV-exposed keratinocytes
# Method: as §1
# The activity of SOD in the cell lysate was measured by WST-1 method using a kit as per the manufacturer's instructions (Elabsciences). Xanthine Oxidase (XO) can catalyze WST-1 react with O2. —to generate a water-soluble formazan dye. SOD can catalyze the disproportionation of superoxide anions, so the reaction can be inhibited by SOD, and the activity of SOD is negatively correlated with the amount of formazan dye. Therefore, the activity of SOD can be determined by the colorimetric analysis of WST-1 products.
# [7] = listed as 95% tetrahydrocurcumin
smiles,measurement,setting,value
"COc1cc(CCC(=O)CC(=O)CCc2ccc(O)c(OC)c2)ccc1O [Tetrahydrocurcumin, tetrahydrocurcumin]",protection against UVA+BaP,[1],dose dependant protection
same,Anti-collagenase activity % inhibition,[2]; 250 μg/ml,No activity
same,Anti-collagenase activity % inhibition,[2]; 500 μg/ml,16.10%
same,ROS generated by exposure to UVA,[3]; UVA 60 mins,reduced the ROS
same,ROS generated by exposure to UVB,[3]; UVB 10 mins,reduced the ROS
same,ROS generated by exposure to heavy metals,[3]; heavy metals (cobalt chloride and lead nitrate) 6 hours,reduced the ROS
same,glutathione peroxidase activity,[4]; [7],dose dependant decrease
same,glutathione peroxidase activity,[4]; listed as Tetrahydrocurucmin,restored normal enzyme activity
same,DPPH radical scavenging % inhibition,[5]; 0.78 μg/ml,22.20%
same,DPPH radical scavenging % inhibition,[5]; 1.56 μg/ml,32.89%
same,DPPH radical scavenging % inhibition,[5]; 3.125 μg/ml,62.34%
same,DPPH radical scavenging % inhibition,[5]; 6.25 μg/ml,70.39%
same,DPPH radical scavenging % inhibition,[5]; 12.50 μg/ml,86.68%
same,DPPH radical scavenging IC50,[5]; concentration reducing DPPH absorbance by 50%,2.29 µg/mL
same,superoxide dismutase activity,[6]; [7],dose dependant increase
same,superoxide dismutase activity,[6]; listed as Tetrahydrocurucmin,restored normal enzyme activity
